Measured values taken from publication PMC10940316.
Results are given in words; binding and its absence hold for the method and conditions named. In cells and extracts the contact can be indirect.

Amino acid sequences for entries named in this document (tags omitted).
UniProt O54857: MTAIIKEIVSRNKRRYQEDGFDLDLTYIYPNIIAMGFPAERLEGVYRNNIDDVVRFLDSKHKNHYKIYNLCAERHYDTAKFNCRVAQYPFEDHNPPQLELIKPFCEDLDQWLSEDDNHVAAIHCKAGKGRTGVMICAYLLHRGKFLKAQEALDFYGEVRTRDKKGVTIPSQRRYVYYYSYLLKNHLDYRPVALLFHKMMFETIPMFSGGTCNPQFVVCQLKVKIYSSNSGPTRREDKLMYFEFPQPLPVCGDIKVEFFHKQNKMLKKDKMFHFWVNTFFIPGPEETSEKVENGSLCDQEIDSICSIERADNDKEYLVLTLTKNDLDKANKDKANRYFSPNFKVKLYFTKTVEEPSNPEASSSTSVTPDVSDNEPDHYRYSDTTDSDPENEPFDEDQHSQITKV

Molecular target: T1, peripheral myelin protein of 22 kDa (PMP22), endogenous in rat sciatic nerve (rat (endogenous in sciatic nerve)) (UniProt P25094)
T1 sequence: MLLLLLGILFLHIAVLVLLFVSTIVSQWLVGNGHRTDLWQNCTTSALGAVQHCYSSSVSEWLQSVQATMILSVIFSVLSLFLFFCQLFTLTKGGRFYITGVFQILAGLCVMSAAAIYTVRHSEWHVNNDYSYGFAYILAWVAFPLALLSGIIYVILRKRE
Test: co-IP; immunoprecipitation of endogenous PMP22 from rat sciatic nerve (P18) with anti-PMP22 antibody-coupled magnetic beads; lysis in 1% DDM, diluted to 0.15%; 1 h at 4 °C, washes with 0.025% DDM; control beads with unspecific antibodies or empty; Western blot

Substance: phosphatase and tensin homolog (PTEN), endogenous in rat sciatic nerve (from UniProt O54857 1-403)
- binding: no binding
